No constants are given. Whether binding was seen depends on the method and setting. Binding seen in cells or lysates may run through a third protein. Here binding means that the protein was enriched with, or labelled near, the bait; the list need not be complete. For part of these data: Sequences can lack the tags named with a protein.
T1: FLAG-dIntS13 wild type (Drosophila S2 stable line) (Drosophila) (UniProt Q9VEX5)
T1 sequence: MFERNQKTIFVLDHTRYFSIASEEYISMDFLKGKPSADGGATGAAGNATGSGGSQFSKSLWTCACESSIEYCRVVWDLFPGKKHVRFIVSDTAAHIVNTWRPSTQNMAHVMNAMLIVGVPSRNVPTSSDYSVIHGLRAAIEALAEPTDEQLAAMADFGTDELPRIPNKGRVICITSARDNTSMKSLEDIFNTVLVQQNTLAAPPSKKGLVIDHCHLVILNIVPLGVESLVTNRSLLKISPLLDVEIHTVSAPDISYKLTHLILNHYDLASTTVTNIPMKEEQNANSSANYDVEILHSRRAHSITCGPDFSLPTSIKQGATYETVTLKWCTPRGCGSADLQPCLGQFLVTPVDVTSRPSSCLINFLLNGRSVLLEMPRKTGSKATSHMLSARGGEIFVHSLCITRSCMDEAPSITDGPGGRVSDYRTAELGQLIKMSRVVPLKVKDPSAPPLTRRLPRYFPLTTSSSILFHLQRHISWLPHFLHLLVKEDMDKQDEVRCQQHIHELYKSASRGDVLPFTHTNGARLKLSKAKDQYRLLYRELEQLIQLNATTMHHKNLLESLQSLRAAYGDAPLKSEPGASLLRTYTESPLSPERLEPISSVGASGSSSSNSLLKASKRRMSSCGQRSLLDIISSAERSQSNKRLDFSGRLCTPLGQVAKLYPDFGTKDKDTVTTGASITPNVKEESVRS

By UniProt entry, the sequences of proteins in these tests, tags left out. Where a name states a change or a piece, a line headed by the entry shows the natural chain unless it says otherwise.
UniProt Q9NVM9: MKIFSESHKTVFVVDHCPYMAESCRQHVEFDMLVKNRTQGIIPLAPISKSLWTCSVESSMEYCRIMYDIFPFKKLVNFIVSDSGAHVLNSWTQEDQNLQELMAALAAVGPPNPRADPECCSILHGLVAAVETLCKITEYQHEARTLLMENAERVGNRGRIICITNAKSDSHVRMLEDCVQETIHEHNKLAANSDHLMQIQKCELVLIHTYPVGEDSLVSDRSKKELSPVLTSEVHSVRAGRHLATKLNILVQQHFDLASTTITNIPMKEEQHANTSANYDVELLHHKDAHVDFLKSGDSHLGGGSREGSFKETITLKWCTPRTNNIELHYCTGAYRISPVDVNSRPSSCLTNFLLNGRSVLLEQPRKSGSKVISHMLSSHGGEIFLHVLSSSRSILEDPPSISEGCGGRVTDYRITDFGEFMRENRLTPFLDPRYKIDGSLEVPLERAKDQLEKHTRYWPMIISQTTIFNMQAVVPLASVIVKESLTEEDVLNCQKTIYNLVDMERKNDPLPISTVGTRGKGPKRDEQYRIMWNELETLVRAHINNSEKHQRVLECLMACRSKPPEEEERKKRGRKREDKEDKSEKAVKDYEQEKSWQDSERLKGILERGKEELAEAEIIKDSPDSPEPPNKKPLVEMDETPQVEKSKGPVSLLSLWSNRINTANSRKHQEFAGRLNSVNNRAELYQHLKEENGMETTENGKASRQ
UniProt Q9NVR2: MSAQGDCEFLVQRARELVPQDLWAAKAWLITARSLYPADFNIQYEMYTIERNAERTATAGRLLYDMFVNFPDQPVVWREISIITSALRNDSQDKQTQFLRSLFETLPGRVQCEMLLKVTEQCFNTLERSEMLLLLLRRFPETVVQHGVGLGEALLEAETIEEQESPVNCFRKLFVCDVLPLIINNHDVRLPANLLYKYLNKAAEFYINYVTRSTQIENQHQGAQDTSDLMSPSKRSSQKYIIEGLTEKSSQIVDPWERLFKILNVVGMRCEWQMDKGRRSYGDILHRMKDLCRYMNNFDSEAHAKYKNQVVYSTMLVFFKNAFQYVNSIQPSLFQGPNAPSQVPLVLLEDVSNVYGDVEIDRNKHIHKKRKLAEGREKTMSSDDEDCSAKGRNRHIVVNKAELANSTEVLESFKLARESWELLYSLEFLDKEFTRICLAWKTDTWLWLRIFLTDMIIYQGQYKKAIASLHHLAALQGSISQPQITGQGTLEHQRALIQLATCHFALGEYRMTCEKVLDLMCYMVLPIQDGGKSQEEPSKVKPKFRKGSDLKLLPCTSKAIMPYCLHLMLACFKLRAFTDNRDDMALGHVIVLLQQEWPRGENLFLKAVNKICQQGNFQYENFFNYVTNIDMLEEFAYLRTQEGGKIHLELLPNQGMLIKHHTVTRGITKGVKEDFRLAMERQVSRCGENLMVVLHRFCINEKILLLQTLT


Key:
[1] = molecular target: FLAG-INTS13 Family 2 mutant (p.S652L) (HEK-293T stable line) (human) (UniProt Q9NVM9); experiment: co-IP + affinity purification with mass spectrometry; anti-FLAG M2 agarose on nuclear extract of HEK-293T lines expressing FLAG-INTS13 wt, F1 or F2 (48 h doxycycline); 20 mM HEPES pH 7.4, 150 mM KCl, 10% glycerol, 0.1% NP-40, 4 °C; LC/MS and western blot; naive cells as control
[2] = molecular target: T1, FLAG-dIntS13 wild type (Drosophila S2 stable line) (Drosophila); experiment: co-IP + affinity purification with mass spectrometry; anti-FLAG affinity resin on nuclear extract of Drosophila S2 lines expressing FLAG-dIntS13 wt, dF1 or dF2 (copper-induced); LC/MS and western blot; naive S2 cells as control

| binding [1] | binding [2] | Molecule |
| --- | --- | --- |
| binds |  | endogenous INTS10 (HEK-293T nuclear extract) (from UniProt Q9NVR2 1-710) |
|  | binds | endogenous dIntS10 (Drosophila S2 nuclear extract) (protein, UniProt Q9VZM7 1-631) MPSQEENELYMVKEAQRLRKSDPCAAMAWIITAKTLYPNAFNLQYEAYLLERDAQNYEEAAKCFSAIATNFQNQHTELWQEINSLTNALRNENETTPEHEFYVKMYKHLTPEVQHNIFMHTINHSADNLERIYIYILMFNKFPKSAITQAPRLLEMLAEGMKTEPDLYQRILVEEVLPMIQNKPPELSPNLACRLYTSSLEFYLRQIMDESDTADAWKNIFKVLMICGQMMGWEPFLPFSKHVNQNVYWEKLVDILSGSPAGSSQVLFYATTLFIYSLHGYIRNCKLRIEDADVTHVLVEGFMEWSPEGDGSEVPSMEPPKFSLTTAISPELSKAFLHAAQCWQLLNTDQFQRDFSQLMLALPLAPWISRFLFDLAIYFGHRDEANKLMADMTTQSSLVQSLQILSLNLMQGSMTLQGFQCILKILSELPTTQGQLLENMSLKGHRHMVFLPLTRSALVQYCVGAIISRLSRKVFEPNVPDRLLGDILVLQQLNLLNDVLLTQQIFNLIKQRKSFNLRTLSTYIINIDLLEELSHIWNSQQEDNFELTSSPNSSGTPTATTVAGGSQSRRIGTRGADKGARDEFRAITRQQIARCNENVITLLANFINQEHLMLAQHIFGISQPVETIVIK |
|  | binds | endogenous dIntS14 (Drosophila S2 nuclear extract) (protein, UniProt Q9VPY0 1-587) MPTLIALDASLSMLRPVPGRNEHTYQSLATKGIQHLLDNLTAAGKLEHVALLSYSTTAELKVDFTRDYDQVRQAVKKVEPVDKACLMSMLKAVVSIMSPWGNQNILQVVVFTDCGLGFGNTSITGFLEAYAEKESEPEFGFLKTLANYNLNFICLGLHGDYYFTRGLAVYQQLLDKVSLKGQLFMTKPAKSSDAVEGNPNPNPNPSHKSELGRTTVFELIERLCEASYKSSEVTLKCGSYFRMEASVLLWPPTAPYEQKSHIFGREPTIRHTDQKIEVCGFLSLSDIGSPATLSRHWVLPKVEREKSGSSRRSGNLSAAAKPPKLNLDTSNPNYELEKLEADIKEFYAKDSKDTEESGDDDVTIVLKPGPQTEQQKENLCVLLHGALKMENMAALVRVGDKWYGFIYAFTDSKKKSNLMLNILPPGTNVIPWLGDLESLGFPEDLAPGETASFPVRADRRSYSQSSVVWIRQASLQSDVQKVLRHAKKMPDKTQHFYKELNRIRRAALALGFVELLEALAMLLEKECAHLSLNGASNDCTLQLQHAATELRKTSNRDMKSMIVPLQKVGASDAGSTAATAPAPAYMY |

From publication PMC9559116
